For series [1], the system named is HEK293T cells. Briefly: Surface localization of HA-tagged engineered receptors by flow cytometry with anti-HA antibody. It counts as cell-based. Conditions: normalized to SEQ ID NO: 33 control; for Normalized HA %: % HA-tag positive cells; for Normalized HA MFI: anti-HA MFI. A general note: A flow cytometer gives signals particle by particle.
Series [2] has as its system HEK293T cells. It counts as cell-based.

B1: CODA807: engineered chimeric LGIC receptor, Y115D, L131E in SEQ ID NO: 33 (protein)
chain: MRCSPGGVWLALAASLLHVSLQGEFQRKLYKELVKNYNPLERPVANDSQPLTVYFSLSLLQIMDVDEKNQVLTTNIWLQMSWTDHYLQWNVSEYPGVKTVRFPDGQIWKPDILLDNSADERFDATFHTNVEVNSSGHCQYLPPGIFKSSCPMDLKNFPMDVQTCKLKFGSWSYGGWSLDLQMQEADISGYIPNGEWDLVGIPGKRSERFYECCKEPYPDVTFTVTMRRRMGYYLIQMYIPSLLIVILSWISFWINMDAAPARVGLGITTVLTMTTQSSGSRASLPKVSYVKAIDIWMAVCLLFVFSALLEYAAVNFVSRQHKELLRFRRKRRHHKSPMLNLFQEDEAGEGRFNFSAYGMGPACLQAKDGISVKGANNSNTTNPPPAPSKSPEEMRKLFIQRAKKIDKISRIGFPMAFLIFNMFYWIIYKIVRREDVHNQ
modifications: synthetic sequence of chimeric LGIC
On to B1, for which, in the series on HEK293T cells [1], the “Normalized HA %” value is reported as 0.91 and the “Normalized HA MFI” value came to 1.00. Further, in the series on HEK293T cells [2], the “Normalized AB %” value stood at 0.78 and the “Normalized AB MFI” value is recorded as 1.14.

B2: CODA1045: engineered chimeric LGIC receptor, R101W, Y210V in SEQ ID NO: 33 (protein)
chain: MRCSPGGVWLALAASLLHVSLQGEFQRKLYKELVKNYNPLERPVANDSQPLTVYFSLSLLQIMDVDEKNQVLTTNIWLQMSWTDHYLQWNVSEYPGVKTVWFPDGQIWKPDILLYNSADERFDATFHTNVLVNSSGHCQYLPPGIFKSSCPMDLKNFPMDVQTCKLKFGSWSYGGWSLDLQMQEADISGYIPNGEWDLVGIPGKRSERFVECCKEPYPDVTFTVTMRRRMGYYLIQMYIPSLLIVILSWISFWINMDAAPARVGLGITTVLTMTTQSSGSRASLPKVSYVKAIDIWMAVCLLFVFSALLEYAAVNFVSRQHKELLRFRRKRRHHKSPMLNLFQEDEAGEGRFNFSAYGMGPACLQAKDGISVKGANNSNTTNPPPAPSKSPEEMRKLFIQRAKKIDKISRIGFPMAFLIFNMFYWIIYKIVRREDVHNQ
modifications: synthetic sequence of chimeric LGIC
As to B2, in the series with HEK293T cells [1], the “Normalized HA %” value is 1.09 and the “Normalized HA MFI” value is 0.87. Moreover, in the series with HEK293T cells [2], the “Normalized AB %” value is reported as 0.03 and the “Normalized AB MFI” value was determined as 0.35.

B3: CODA1048: engineered chimeric LGIC receptor, R101F, Y210F in SEQ ID NO: 33 (protein)
chain: MRCSPGGVWLALAASLLHVSLQGEFQRKLYKELVKNYNPLERPVANDSQPLTVYFSLSLLQIMDVDEKNQVLTTNIWLQMSWTDHYLQWNVSEYPGVKTVFFPDGQIWKPDILLYNSADERFDATFHTNVLVNSSGHCQYLPPGIFKSSCPMDLKNFPMDVQTCKLKFGSWSYGGWSLDLQMQEADISGYIPNGEWDLVGIPGKRSERFFECCKEPYPDVTFTVTMRRRMGYYLIQMYIPSLLIVILSWISFWINMDAAPARVGLGITTVLTMTTQSSGSRASLPKVSYVKAIDIWMAVCLLFVFSALLEYAAVNFVSRQHKELLRFRRKRRHHKSPMLNLFQEDEAGEGRFNFSAYGMGPACLQAKDGISVKGANNSNTTNPPPAPSKSPEEMRKLFIQRAKKIDKISRIGFPMAFLIFNMFYWIIYKIVRREDVHNQ
modifications: synthetic sequence of chimeric LGIC
In the case of B3, in the series with HEK293T cells [1], the “Normalized HA %” value is given as 1.05 and the “Normalized HA MFI” value amounted to 0.61. Further, in the series on HEK293T cells [2], the “Normalized AB %” value is given as 0.55 and the “Normalized AB MFI” value is 0.57.

B4: CODA952: engineered chimeric LGIC receptor, Y140I in SEQ ID NO: 33 (protein)
chain: MRCSPGGVWLALAASLLHVSLQGEFQRKLYKELVKNYNPLERPVANDSQPLTVYFSLSLLQIMDVDEKNQVLTTNIWLQMSWTDHYLQWNVSEYPGVKTVRFPDGQIWKPDILLYNSADERFDATFHTNVLVNSSGHCQILPPGIFKSSCPMDLKNFPMDVQTCKLKFGSWSYGGWSLDLQMQEADISGYIPNGEWDLVGIPGKRSERFYECCKEPYPDVTFTVTMRRRMGYYLIQMYIPSLLIVILSWISFWINMDAAPARVGLGITTVLTMTTQSSGSRASLPKVSYVKAIDIWMAVCLLFVFSALLEYAAVNFVSRQHKELLRFRRKRRHHKSPMLNLFQEDEAGEGRFNFSAYGMGPACLQAKDGISVKGANNSNTTNPPPAPSKSPEEMRKLFIQRAKKIDKISRIGFPMAFLIFNMFYWIIYKIVRREDVHNQ
modifications: synthetic sequence of chimeric LGIC
Turning to B4, in the series with HEK293T cells [1], the “Normalized HA %” value was found to be 1.41 and the “Normalized HA MFI” value was 1.53. Also, in the series with HEK293T cells [2], the “Normalized AB %” value is on record as 0.54 and the “Normalized AB MFI” value stood at 2.64.

B5: CODA1053: engineered chimeric LGIC receptor, R101M, L131A in SEQ ID NO: 33 (protein)
chain: MRCSPGGVWLALAASLLHVSLQGEFQRKLYKELVKNYNPLERPVANDSQPLTVYFSLSLLQIMDVDEKNQVLTTNIWLQMSWTDHYLQWNVSEYPGVKTVMFPDGQIWKPDILLYNSADERFDATFHTNVAVNSSGHCQYLPPGIFKSSCPMDLKNFPMDVQTCKLKFGSWSYGGWSLDLQMQEADISGYIPNGEWDLVGIPGKRSERFYECCKEPYPDVTFTVTMRRRMGYYLIQMYIPSLLIVILSWISFWINMDAAPARVGLGITTVLTMTTQSSGSRASLPKVSYVKAIDIWMAVCLLFVFSALLEYAAVNFVSRQHKELLRFRRKRRHHKSPMLNLFQEDEAGEGRFNFSAYGMGPACLQAKDGISVKGANNSNTTNPPPAPSKSPEEMRKLFIQRAKKIDKISRIGFPMAFLIFNMFYWIIYKIVRREDVHNQ
modifications: synthetic sequence of chimeric LGIC
For the molecule B5, in the series on HEK293T cells [1], the “Normalized HA %” value was determined as 1.31 and the “Normalized HA MFI” value is on record as 0.97. In the series on HEK293T cells [2], the “Normalized AB %” value is recorded as 0.91 and the “Normalized AB MFI” value was found to be 0.90.

B6: CODA1047: engineered chimeric LGIC receptor, R101F, Y210V in SEQ ID NO: 33 (protein)
chain: MRCSPGGVWLALAASLLHVSLQGEFQRKLYKELVKNYNPLERPVANDSQPLTVYFSLSLLQIMDVDEKNQVLTTNIWLQMSWTDHYLQWNVSEYPGVKTVFFPDGQIWKPDILLYNSADERFDATFHTNVLVNSSGHCQYLPPGIFKSSCPMDLKNFPMDVQTCKLKFGSWSYGGWSLDLQMQEADISGYIPNGEWDLVGIPGKRSERFVECCKEPYPDVTFTVTMRRRMGYYLIQMYIPSLLIVILSWISFWINMDAAPARVGLGITTVLTMTTQSSGSRASLPKVSYVKAIDIWMAVCLLFVFSALLEYAAVNFVSRQHKELLRFRRKRRHHKSPMLNLFQEDEAGEGRFNFSAYGMGPACLQAKDGISVKGANNSNTTNPPPAPSKSPEEMRKLFIQRAKKIDKISRIGFPMAFLIFNMFYWIIYKIVRREDVHNQ
modifications: synthetic sequence of chimeric LGIC
For the molecule B6, in the series with HEK293T cells [1], the “Normalized HA %” value was found to be 1.13 and the “Normalized HA MFI” value is 0.65. Further, in the series with HEK293T cells [2], the “Normalized AB %” value was found to be 0.03 and the “Normalized AB MFI” value was 0.38.

B7: CODA1054: engineered chimeric LGIC receptor, R101M, L131F in SEQ ID NO: 33 (protein)
chain: MRCSPGGVWLALAASLLHVSLQGEFQRKLYKELVKNYNPLERPVANDSQPLTVYFSLSLLQIMDVDEKNQVLTTNIWLQMSWTDHYLQWNVSEYPGVKTVMFPDGQIWKPDILLYNSADERFDATFHTNVFVNSSGHCQYLPPGIFKSSCPMDLKNFPMDVQTCKLKFGSWSYGGWSLDLQMQEADISGYIPNGEWDLVGIPGKRSERFYECCKEPYPDVTFTVTMRRRMGYYLIQMYIPSLLIVILSWISFWINMDAAPARVGLGITTVLTMTTQSSGSRASLPKVSYVKAIDIWMAVCLLFVFSALLEYAAVNFVSRQHKELLRFRRKRRHHKSPMLNLFQEDEAGEGRFNFSAYGMGPACLQAKDGISVKGANNSNTTNPPPAPSKSPEEMRKLFIQRAKKIDKISRIGFPMAFLIFNMFYWIIYKIVRREDVHNQ
modifications: synthetic sequence of chimeric LGIC
On to B7, for which, in the series on HEK293T cells [1], the “Normalized HA %” value was determined as 0.96 and the “Normalized HA MFI” value was 0.88. In the series on HEK293T cells [2], the “Normalized AB %” value came to 0.82 and the “Normalized AB MFI” value is recorded as 0.82.

B8: CODA1027: engineered chimeric LGIC receptor, R101F, L131D in SEQ ID NO: 33 (protein)
chain: MRCSPGGVWLALAASLLHVSLQGEFQRKLYKELVKNYNPLERPVANDSQPLTVYFSLSLLQIMDVDEKNQVLTTNIWLQMSWTDHYLQWNVSEYPGVKTVFFPDGQIWKPDILLYNSADERFDATFHTNVDVNSSGHCQYLPPGIFKSSCPMDLKNFPMDVQTCKLKFGSWSYGGWSLDLQMQEADISGYIPNGEWDLVGIPGKRSERFYECCKEPYPDVTFTVTMRRRMGYYLIQMYIPSLLIVILSWISFWINMDAAPARVGLGITTVLTMTTQSSGSRASLPKVSYVKAIDIWMAVCLLFVFSALLEYAAVNFVSRQHKELLRFRRKRRHHKSPMLNLFQEDEAGEGRFNFSAYGMGPACLQAKDGISVKGANNSNTTNPPPAPSKSPEEMRKLFIQRAKKIDKISRIGFPMAFLIFNMFYWIIYKIVRREDVHNQ
modifications: synthetic sequence of chimeric LGIC
In the case of B8, in the series with HEK293T cells [1], the “Normalized HA %” value turned out to be 0.61 and the “Normalized HA MFI” value is given as 0.49. In the series on HEK293T cells [2], the “Normalized AB %” value came to 0.50 and the “Normalized AB MFI” value was found to be 0.68.

B9: CODA1025: engineered chimeric LGIC receptor, R101F, L131G in SEQ ID NO: 33 (protein)
chain: MRCSPGGVWLALAASLLHVSLQGEFQRKLYKELVKNYNPLERPVANDSQPLTVYFSLSLLQIMDVDEKNQVLTTNIWLQMSWTDHYLQWNVSEYPGVKTVFFPDGQIWKPDILLYNSADERFDATFHTNVGVNSSGHCQYLPPGIFKSSCPMDLKNFPMDVQTCKLKFGSWSYGGWSLDLQMQEADISGYIPNGEWDLVGIPGKRSERFYECCKEPYPDVTFTVTMRRRMGYYLIQMYIPSLLIVILSWISFWINMDAAPARVGLGITTVLTMTTQSSGSRASLPKVSYVKAIDIWMAVCLLFVFSALLEYAAVNFVSRQHKELLRFRRKRRHHKSPMLNLFQEDEAGEGRFNFSAYGMGPACLQAKDGISVKGANNSNTTNPPPAPSKSPEEMRKLFIQRAKKIDKISRIGFPMAFLIFNMFYWIIYKIVRREDVHNQ
modifications: synthetic sequence of chimeric LGIC
Consider B9, for which, in the series on HEK293T cells [1], the “Normalized HA %” value came out at 0.98 and the “Normalized HA MFI” value stood at 0.63. Also, in the series with HEK293T cells [2], the “Normalized AB %” value is 0.46 and the “Normalized AB MFI” value turned out to be 0.90.

The values above are taken from patent US20240317834A1, “COMPOSITIONS AND METHODS FOR NEUROLOGICAL DISEASES” (CODA BIOTHERAPEUTICS, INC., priority 2020, published 2024).
